{
  "source": "the supplement of paper PMC8728848",
  "test_in_all_cases": "glycan array binding signal (z-score within array); higher = stronger binding",
  "conditions_in_all_cases": "glycan notation: IUPAC condensed, linker removed",
  "key": {"[1]": {"target": "Fuc(a1-2)Gal(b1-4)GlcNAc(b1-3)Gal(b1-4)GlcNAc(b1-3)Gal(b1-4)GlcNAc", "summary_of_the_method": "(§1)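 The Consortium for Functional Glycomics database supplied 3228 glycan arrays, of which those lacking an available protein sequence were dropped. The binding signal, a within-array Z-score, was averaged across arrays of the same protein sequence and across linkers. Negative scores can be read as non-binding.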"}, "[2]": {"target": "Fuc(a1-2)Gal(b1-4)GlcNAc(b1-3)GalNAc", "summary_of_the_method": "as §1"}, "[3]": {"target": "Fuc(a1-2)Gal(b1-4)GlcNAc(b1-3)[Fuc(a1-2)Gal(b1-4)GlcNAc(b1-6)]GalNAc", "summary_of_the_method": "as §1"}, "[4]": {"target": "Fuc(a1-2)Gal(b1-4)GlcNAc(b1-3)[Fuc(a1-3)[Gal(b1-4)]GlcNAc(b1-6)]Gal(b1-4)Glc", "summary_of_the_method": "as §1"}, "[5]": {"target": "Fuc(a1-2)Gal(b1-4)GlcNAc(b1-6)GalNAc", "summary_of_the_method": "as §1"}, "[6]": {"target": "Fuc(a1-2)Gal(b1-4)GlcNAc6S", "summary_of_the_method": "as §1"}, "[7]": {"target": "Fuc(a1-2)Gal(b1-4)[Fuc(a1-3)]GlcNAc", "summary_of_the_method": "as §1"}, "[8]": {"target": "Fuc(a1-2)Gal(b1-4)[Fuc(a1-3)]GlcNAc(b1-2)Man(a1-3)[Fuc(a1-2)Gal(b1-4)[Fuc(a1-3)]GlcNAc(b1-2)Man(a1-6)]Man(b1-4)GlcNAc(b1-4)[Fuc(a1-6)]GlcNAc", "summary_of_the_method": "as §1"}, "[9]": {"target": "Fuc(a1-2)Gal(b1-4)[Fuc(a1-3)]GlcNAc(b1-2)[Fuc(a1-2)Gal(b1-4)[Fuc(a1-3)]GlcNAc(b1-4)]Man(a1-3)[Fuc(a1-2)Gal(b1-4)[Fuc(a1-3)]GlcNAc(b1-2)Man(a1-6)]Man(b1-4)GlcNAc(b1-4)GlcNAc", "summary_of_the_method": "as §1"}, "[10]": {"target": "Fuc(a1-2)Gal(b1-4)[Fuc(a1-3)]GlcNAc(b1-3)Gal(b1-4)[Fuc(a1-3)]GlcNAc", "summary_of_the_method": "as §1"}, "[11]": {"target": "Fuc(a1-2)Gal(b1-4)[Fuc(a1-3)]GlcNAc(b1-3)Gal(b1-4)[Fuc(a1-3)]GlcNAc(b1-3)Gal(b1-4)[Fuc(a1-3)]GlcNAc", "summary_of_the_method": "as §1"}, "[12]": {"target": "Fuc(a1-2)Gal(b1-4)[Fuc(a1-3)]GlcNAc(b1-3)GalNAc", "summary_of_the_method": "as §1"}, "[13]": {"target": "Fuc(a1-2)Gal(b1-4)[Fuc(a1-3)]GlcNAc(b1-3)[Neu5Ac(a2-6)Gal(b1-4)GlcNAc(b1-6)]Gal(b1-4)Glc", "summary_of_the_method": "as §1"}, "[14]": {"target": "Fuc(a1-2)Gal3S(b1-4)GlcNAc", "summary_of_the_method": "as §1"}, "[15]": {"target": "Fuc(a1-2)Gal6S(b1-3)GlcNAc", "summary_of_the_method": "as §1"}, "[16]": {"target": "Fuc(a1-2)Gal6S(b1-3)GlcNAc6S", "summary_of_the_method": "as §1"}, "Fuc(a1-2)Gal6S(b1-4)Glc": {"target": "Fuc(a1-2)Gal6S(b1-4)Glc", "summary_of_the_method": "as §1"}, "[17]": {"target": "Fuc(a1-2)Gal6S(b1-4)Glc6S", "summary_of_the_method": "as §1"}, "Fuc(a1-2)[Gal(a1-3)]Gal": {"target": "Fuc(a1-2)[Gal(a1-3)]Gal", "summary_of_the_method": "as §1"}, "[18]": {"target": "Fuc(a1-2)[Gal(a1-3)]Gal(b1-3)GalNAc", "summary_of_the_method": "as §1"}, "[19]": {"target": "Fuc(a1-2)[Gal(a1-3)]Gal(b1-3)GalNAc(b1-3)Gal(a1-4)Gal(b1-4)Glc", "summary_of_the_method": "as §1"}, "[20]": {"target": "Fuc(a1-2)[Gal(a1-3)]Gal(b1-3)GlcNAc", "summary_of_the_method": "as §1"}, "[21]": {"target": "Fuc(a1-2)[Gal(a1-3)]Gal(b1-3)GlcNAc(b1-2)Man(a1-3)[Fuc(a1-2)[Gal(a1-3)]Gal(b1-3)GlcNAc(b1-2)Man(a1-6)]Man(b1-4)GlcNAc(b1-4)GlcNAc", "summary_of_the_method": "as §1"}, "[22]": {"target": "Fuc(a1-2)[Gal(a1-3)]Gal(b1-3)GlcNAc(b1-2)Man(a1-3)[Fuc(a1-2)[Gal(a1-3)]Gal(b1-3)GlcNAc(b1-2)Man(a1-6)]Man(b1-4)GlcNAc(b1-4)[Fuc(a1-6)]GlcNAc", "summary_of_the_method": "as §1"}, "[23]": {"target": "Fuc(a1-2)[Gal(a1-3)]Gal(b1-3)GlcNAc(b1-3)GalNAc", "summary_of_the_method": "as §1"}, "[24]": {"target": "Fuc(a1-2)[Gal(a1-3)]Gal(b1-3)GlcNAc(b1-6)GalNAc", "summary_of_the_method": "as §1"}, "[25]": {"target": "Fuc(a1-2)[Gal(a1-3)]Gal(b1-4)Glc", "summary_of_the_method": "as §1"}, "[26]": {"target": "Fuc(a1-2)[Gal(a1-3)]Gal(b1-4)GlcNAc", "summary_of_the_method": "as §1"}, "[27]": {"target": "Fuc(a1-2)[Gal(a1-3)]Gal(b1-4)GlcNAc(b1-2)Man", "summary_of_the_method": "as §1"}, "[28]": {"target": "Fuc(a1-2)[Gal(a1-3)]Gal(b1-4)GlcNAc(b1-2)Man(a1-3)[Fuc(a1-2)[Gal(a1-3)]Gal(b1-4)GlcNAc(b1-2)Man(a1-6)]Man(b1-4)GlcNAc(b1-4)GlcNAc", "summary_of_the_method": "as §1"}},
  "note": "This is one part of the list.",
  "data": [
    {"binder": "Mermaid1 (Stilbonema majum) (protein) MGSSHHHHHHSSGLVPRGSHMAASGWLRSPQGTVVKLYRRSLSWSKADEFCKDVDGRLVVDRTADMHLFLIKNVLKEKKSRVWVGLRRTAPHSRTWIWSDGTRQNEDDLDANLWLRDEPNDAAGEEECALFMYSPWEKAWGLNDYLCRGGCRSYQFICEKWIR", "values": [
      {"measurement": "glycan array binding signal (z-score)", "setting": "[1]", "result": -0.63},
      {"measurement": "glycan array binding signal (z-score)", "setting": "[2]", "result": -0.716},
      {"measurement": "glycan array binding signal (z-score)", "setting": "[3]", "result": -0.21},
      {"measurement": "glycan array binding signal (z-score)", "setting": "[4]", "result": 0.017},
      {"measurement": "glycan array binding signal (z-score)", "setting": "[5]", "result": -0.219},
      {"measurement": "glycan array binding signal (z-score)", "setting": "[6]", "result": -0.921},
      {"measurement": "glycan array binding signal (z-score)", "setting": "[7]", "result": 0},
      {"measurement": "glycan array binding signal (z-score)", "setting": "[8]", "result": -0.053},
      {"measurement": "glycan array binding signal (z-score)", "setting": "[9]", "result": -0.72},
      {"measurement": "glycan array binding signal (z-score)", "setting": "[10]", "result": -0.562},
      {"measurement": "glycan array binding signal (z-score)", "setting": "[11]", "result": -0.519},
      {"measurement": "glycan array binding signal (z-score)", "setting": "[12]", "result": -0.868},
      {"measurement": "glycan array binding signal (z-score)", "setting": "[13]", "result": 0.613},
      {"measurement": "glycan array binding signal (z-score)", "setting": "[14]", "result": 0.061},
      {"measurement": "glycan array binding signal (z-score)", "setting": "[15]", "result": -0.404},
      {"measurement": "glycan array binding signal (z-score)", "setting": "[16]", "result": 1.58},
      {"measurement": "glycan array binding signal (z-score)", "setting": "Fuc(a1-2)Gal6S(b1-4)Glc", "result": -0.65},
      {"measurement": "glycan array binding signal (z-score)", "setting": "[17]", "result": -0.466},
      {"measurement": "glycan array binding signal (z-score)", "setting": "Fuc(a1-2)[Gal(a1-3)]Gal", "result": -0.624},
      {"measurement": "glycan array binding signal (z-score)", "setting": "[18]", "result": 3.08},
      {"measurement": "glycan array binding signal (z-score)", "setting": "[19]", "result": -0.881},
      {"measurement": "glycan array binding signal (z-score)", "setting": "[20]", "result": 0.109},
      {"measurement": "glycan array binding signal (z-score)", "setting": "[21]", "result": -0.403},
      {"measurement": "glycan array binding signal (z-score)", "setting": "[22]", "result": -0.259},
      {"measurement": "glycan array binding signal (z-score)", "setting": "[23]", "result": 0.151},
      {"measurement": "glycan array binding signal (z-score)", "setting": "[24]", "result": -0.589},
      {"measurement": "glycan array binding signal (z-score)", "setting": "[25]", "result": -0.647},
      {"measurement": "glycan array binding signal (z-score)", "setting": "[26]", "result": -0.508},
      {"measurement": "glycan array binding signal (z-score)", "setting": "[27]", "result": -0.732},
      {"measurement": "glycan array binding signal (z-score)", "setting": "[28]", "result": 0.198}
    ]}
  ]
}
